These are yes or no findings as the source states them, for the method shown. Binding seen in cells or lysates may run through a third protein. Binding calls can cover weak binding; strength is not graded here.
Target: MAYV GFP-nsP3 (wild type) (Mayaro virus)
Assay: co-IP; GFP-Trap Magnetic Agarose on 400 µg lysate of transfected HeLa cells, 2 h at 4°C; lysis and wash in 50 mM Tris-HCl pH 8.0, 100 mM NaCl, 1 mM MgCl2, 1% Triton X-100; immunoblot for GFP, G3BP1 and G3BP2 (the paper calls it GFP pull-down)

B1: Ras-GTPase-activating SH3 domain-binding protein 2 (G3BP2) (protein, UniProt Q9UN86 1-482)
chain: MVMEKPSPLLVGREFVRQYYTLLNKAPEYLHRFYGRNSSYVHGGVDASGKPQEAVYGQNDIHHKVLSLNFSECHTKIRHVDAHATLSDGVVVQVMGLLSNSGQPERKFMQTFVLAPEGSVPNKFYVHNDMFRYEDEVFGDSEPELDEESEDEVEEEQEERQPSPEPVQENANSGYYEAHPVTNGIEEPLEESSHEPEPEPESETKTEELKPQVEEKNLEELEEKSTTPPPAEPVSLPQEPPKAFSWASVTSKNLPPSGTVSSSGIPPHVKAPVSQPRVEAKPEVQSQPPRVREQRPRERPGFPPRGPRPGRGDMEQNDSDNRRIIRYPDSHQLFVGNLPHDIDENELKEFFMSFGNVVELRINTKGVGGKLPNFGFVVFDDSEPVQRILIAKPIMFRGEVRLNVEEKKTRAARERETRGGGDDRRDIRRNDRGPGGPRGIVGGGMMRDRDGRGPPPRGGMAQKLGSGRGTGQMEGRFTGQRR
  binding: binds

Source: paper PMC9403187
